Measured values as given in US20230074892A1, “BACTERIOPHAGE COMPOSITIONS AND USES THEREOF” (YALE UNIVERSITY, priority 2019, published 2023).
At least one compound was matched to its structure with a doubt left.

Assays:
[1] = system: E. coli BW25113 phage-resistant mutants and evolved isolates; experiment: Assessment of tetracycline resistance (agar spot MIC); assay type: cell-based, Escherichia coli
P. aeruginosa bacteria = experiment: Pyocyanin level in culture supernatant after treatment; assay type: cell-based; settings: single treatment
Protocol: Shown is bacteria pyocyanin relative to untreated control. […] When P. aeruginosa bacteria are exposed to treatments along x-axis, the supernatant of the culture is tested for pyocyanin level.

## CN(C)[C@@H]1C(O)=C(C(N)=O)C(=O)[C@@]2(O)C(O)=C3C(=O)c4c(O)cccc4[C@@](C)(O)[C@H]3C[C@@H]12 [Tetracycline]
[1]; -phage control populations, Day 10
  tetracycline MIC of isolates from control populations: largely unchanged
[1]; a subset of the LPS mutants
  tetracycline resistance (MIC) of LPS mutants: increased resistance
[1]; all six phage-resistant tolC mutants, fluctuation assay
  tetracycline resistance (MIC) of tolC mutants compared to parental strain: reduced resistance
P. aeruginosa bacteria
  bacteria pyocyanin relative to untreated control: do not reducte production
